Experimental data as given in US7531505B2, “Compositions and methods for promoting attachment of cells of endothelial cell lineage to medical devices” (Affinergy, Inc., priority 2006, dated 2009).
Not every detail of the peptide structures is certain; ends, links or a residue may be inferred. For at least one compound, name, drawing or mass did not settle the structure. Some of these results come from one statement about several compounds together. Bridges are numbered along the chain shown (N, C = ends). Roman numbers before positions name the chains, in order. Where no end group is shown, it is not given here. The star is where a group is joined. Biotin = O=C1N[C@H]2[C@H](CS[C@H]2CCCCC(=O)*)N1

Assay: ELISA of relative binding strength in buffers from pH 2 to pH 12
Conditions: peptide 1 μM
Experimental: For determining the effect of pH on binding specificity, the assay for determining relative binding strengths (by ELISA) was performed in the presence of different buffers, varying in pH in a range of from pH 2 to pH 12. For example, a buffer containing glycine and water was adjusted to pH2 using HCl; an acetate buffer was adjusted to pH 4.0 (ionic strength of about 0.001 M); a phosphate buffer (NaH2PO4) was adjusted to pH 6.0 (ionic strength of about 0.012M); a phosphate buffer (NaH2PO4) was adjusted to pH 7.0 (ionic strength of about 0.019M); a tris buffer was adjusted to pH 8.0 (ionic strength of about 0.006M); an ethanolamine buffer was adjusted to pH 10.0 (ionic strength of about 0.003M); and a phosphate buffer (NaH2PO4) was adjusted to pH 12.0 (ionic strength of about 0.044M). The final concentration of each peptide in this assay was 1 μM. Tested in this assay were surface-binding domains comprising a peptide consisting essentially of the amino acid sequence illustrated as SEQ ID NO:3, and the multimers thereof (divalent version (SEQ ID NO:7) and tetravalent version (SEQ ID NO:8)).

For “I: SSHRTNHKKNNPKKKNKTRGKKGGK(Biotin)-NH2 / II: SSHRTNHKKNNPKKKNKTRGK / III: SSHRTNHKKNNPKKKNKTRG / IV: SSHRTNHKKNNPKKKNKTRG (amide I:21-IV:C, I:22-II:C, II:21-III:C) [SEQ ID NO:8]”, the “optimum pH for binding” value (buffers pH 2 to pH 12) was 7.0 pH and the “decrease in binding at pH 6.0 or pH 8.0” value (relative to optimum pH 7.0) was ≤ 20%.
